Here are results for one substance from article PMC10286367.

The chains behind the UniProt entries cited, without tags or fusion partners.
UniProt Q04207: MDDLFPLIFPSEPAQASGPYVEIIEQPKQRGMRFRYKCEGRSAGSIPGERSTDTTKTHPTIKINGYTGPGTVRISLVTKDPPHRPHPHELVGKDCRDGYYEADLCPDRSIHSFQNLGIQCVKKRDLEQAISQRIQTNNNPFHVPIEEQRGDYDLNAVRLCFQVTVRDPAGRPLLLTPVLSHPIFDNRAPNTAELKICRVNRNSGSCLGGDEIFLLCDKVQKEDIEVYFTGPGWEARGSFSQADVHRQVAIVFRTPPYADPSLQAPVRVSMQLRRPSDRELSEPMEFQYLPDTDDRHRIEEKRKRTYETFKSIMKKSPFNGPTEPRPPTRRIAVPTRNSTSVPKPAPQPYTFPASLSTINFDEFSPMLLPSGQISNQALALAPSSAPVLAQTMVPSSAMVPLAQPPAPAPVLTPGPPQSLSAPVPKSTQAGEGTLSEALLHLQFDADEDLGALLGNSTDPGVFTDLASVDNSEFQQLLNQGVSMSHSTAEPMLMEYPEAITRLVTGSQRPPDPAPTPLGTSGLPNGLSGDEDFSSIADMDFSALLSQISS

In the assay the target is T1, O-GlcNAc transferase (Ogt) (mouse (endogenous in primary astrocytes and hippocampal tissue)) (UniProt Q8CGY8).
T1 sequence: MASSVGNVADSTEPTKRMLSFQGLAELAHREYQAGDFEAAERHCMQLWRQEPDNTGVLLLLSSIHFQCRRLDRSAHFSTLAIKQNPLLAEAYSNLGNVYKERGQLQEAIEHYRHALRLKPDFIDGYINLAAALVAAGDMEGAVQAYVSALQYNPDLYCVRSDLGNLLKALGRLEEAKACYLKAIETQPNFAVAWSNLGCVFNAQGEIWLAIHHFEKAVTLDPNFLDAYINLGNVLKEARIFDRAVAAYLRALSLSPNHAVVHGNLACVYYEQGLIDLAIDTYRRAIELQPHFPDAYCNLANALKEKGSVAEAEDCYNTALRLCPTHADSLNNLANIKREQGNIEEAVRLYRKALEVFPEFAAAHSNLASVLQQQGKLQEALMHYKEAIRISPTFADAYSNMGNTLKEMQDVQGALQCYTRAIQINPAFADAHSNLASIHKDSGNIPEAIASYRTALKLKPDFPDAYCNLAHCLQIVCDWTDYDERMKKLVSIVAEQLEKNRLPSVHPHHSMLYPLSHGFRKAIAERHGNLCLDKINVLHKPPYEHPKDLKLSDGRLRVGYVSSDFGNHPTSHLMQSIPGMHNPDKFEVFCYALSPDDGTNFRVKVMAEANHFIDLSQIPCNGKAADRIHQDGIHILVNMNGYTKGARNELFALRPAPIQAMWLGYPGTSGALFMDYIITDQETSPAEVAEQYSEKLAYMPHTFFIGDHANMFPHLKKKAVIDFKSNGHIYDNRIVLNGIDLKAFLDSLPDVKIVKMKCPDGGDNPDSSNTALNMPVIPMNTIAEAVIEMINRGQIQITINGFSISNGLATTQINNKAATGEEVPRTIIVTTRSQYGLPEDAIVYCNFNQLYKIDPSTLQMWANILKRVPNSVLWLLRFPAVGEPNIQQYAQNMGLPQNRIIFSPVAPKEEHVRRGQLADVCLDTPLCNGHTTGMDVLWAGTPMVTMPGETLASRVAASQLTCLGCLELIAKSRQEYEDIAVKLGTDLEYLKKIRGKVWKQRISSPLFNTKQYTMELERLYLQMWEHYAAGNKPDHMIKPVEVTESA
As to the kind of experiment: co-IP; endogenous reciprocal IP-WB in cultured primary mouse astrocytes; cells crosslinked with 1% formaldehyde for 10 min, lysed with IP Lysis Buffer (50 mM Tris-HCl, 0.5% Triton-X, 150 mM KCl, 1 mM EDTA); Protein A agarose beads, 4 °C.

Results are given in words; binding and its absence hold for the method and conditions named. Binding seen in cells or lysates may run through a third protein. Some results given as binding are weak or reduced against the parent protein; the word gives no strength.

On to NF-κB p65 (from UniProt Q04207 1-549), for which the binding entry was “binds”.
